Results as given in publication PMC6524416, “Nanofibrous Scaffolds Support a 3D in vitro Permeability Model of the Human Intestinal Epithelium” (Frontiers in Pharmacology, 2019).
Like-named read-outs stand apart in the source and are kept apart here.

What was measured:
[1] = Bidirectional permeability across Caco-2 cultures on collagen-coated PET nanofibrous scaffolds; type: in vitro ADME; details: human, Caco-2 on nanofiber scaffolds, pH 7.4, mean (±SD)
Method: Polyethylene terephthalate flakes (food grade; were procured from recycled plastic bottles and processed in-house) were dissolved in a 1:1 solution of dichloromethane and trifluoroacetic acid (overnight with stirring) and the polymer solution transferred into a syringe fitted with a blunt needle (18 gauge spinneret) attached to a syringe pump (Harvard Apparatus, United Kingdom). Electrospinning was conducted at a flow rate of 0.5 mL/hr at 14 kV voltage (Glassman High Voltage Inc., Series EL, Glassman Europe Ltd., United Kingdom; Supplementary Figure S1). The fibers were collected on a grounded static plate or rotating collector (a tip-collector distance of 15 cm). The scaffolds were removed with the aid of 70% (v/v) IMS and allowed to air dry at room temperature (RT).
The nanofibrous scaffolds were surface coated with type I bovine collagen (Sigma-Aldrich). For type I bovine collagen coating, 150 μL of collagen solution (stock and working concentrations 3.1 mg/mL and 31 μg/mL, respectively) was gently pipetted ensuring adequate coverage of the entire scaffold. […]
Caco-2 (used within 20 passages throughout the study) was obtained from the Clinical Pathology Laboratory, Queens Medical Centre, Nottingham and are available from ATCC. […] The fluorescence of the samples was determined using a plate reader (Tecan Infinite 200, Tecan, United Kingdom) at 530/590 nm (excitation/emission wavelengths). […]

human jejunal = details: ref Sjöberg et al. (2013), Rozehnal et al. (2012), cited from earlier work
[2] = Bidirectional permeability across Caco-2 monolayers on Transwell inserts; type: in vitro ADME; details: human, Caco-2 on Transwell, pH 7.4, mean (±SD)
Method: Caco-2 (used within 20 passages throughout the study) was obtained from the Clinical Pathology Laboratory, Queens Medical Centre, Nottingham and are available from ATCC. They were cultured in DMEM (Gibco) supplemented with 10% (v/v) foetal calf serum (FCS), 2 mM L-Glutamine solution, 1% (v/v) antibiotic/antimycotic solution (Gibco; final concentrations of […] streptomycin sulfate and 25 μgmL^-1 amphotericin B) at 37°C, 5% CO2 in 95% relative humidity (RH). Cells were cultured to around 80% confluence before harvesting cells by passaging with Trypsin/EDTA (Sigma Aldrich). Cell culture media was replaced every 2 days. For the initial evaluation of the scaffold compatibility, Collagen type I and untreated nanofibrous scaffolds were mounted in 24-well Cell Crown^TM inserts (Scaffdex). […] The fluorescence of the samples was determined using a plate reader (Tecan Infinite 200, Tecan, United Kingdom) at 530/590 nm (excitation/emission wavelengths). […]
Transport studies were conducted using standard, widely accepted protocols as previously described ([Volpe, 2008]). […] TEER was measured before and after each experiment to ensure barrier integrity during the experiments and as a control measure of experimental validity. […] Apparent permeability coefficients (Papp) were calculated according to Eq. 2: […]

[3] = Bidirectional permeability across ex vivo porcine intestinal segments; type: in vitro ADME; details: pig
Method: In accordance with the NC3R framework on the reduction and refinement of animals in research; samples were only obtained from healthy adult pig cadavers being used for the purposes of other research projects. The work was conducted according to United Kingdom Home Office guidelines (Animal Scientific Procedures Act […]) and following local AWERB approval (ref 000057). Regional sections from the duodenum (first 25 cm from the stomach), jejunum (150 cm from the stomach) and ileum (first 50 cm back from the ileocecal valve) were resected from pig cadavers (Supplementary Figure S2). Using tweezers the serosa and muscularis propria (muscle layers) were carefully peeled away leaving the mucosa. Sections were washed in PBS, cut to fit the Transwell® inserts (Corning Life Sciences) and transferred in 6-well plates. All tissue was kept on the ice and used within a 24 h time period, post-collection.
Transport studies were conducted using standard, widely accepted protocols as previously described ([Volpe, 2008]). Transport markers were prepared in transport buffer (HBSS, 25 mM HEPES, pH 7.4). Dimethyl sulfoxide (DMSO) was used to aid solubilisation of poorly soluble drugs at a maximum final concentration of 0.1% (v/v) used in all transport experiments. TEER was measured before and after each experiment to ensure barrier integrity during the experiments and as a control measure of experimental validity. Inserts were transferred to fresh plates containing transport buffer (apical/basolateral volumes were 0.4/1.2 mL and 0.5/6 mL for Transwell® and Snapwell® inserts, respectively). Donor solutions were added to the relevant compartments and the inserts were then incubated at 37°C with shaking at 150 rpm and sampled at intervals of 30 min or 1 h for 1–2 h. Apparent permeability coefficients (Papp) were calculated according to Eq. 2:
Where dQ/dt is the flux of the compound being investigated (μM s-1), A is the exposed surface area of the insert/scaffold (cm^2) and C0 is the concentration in the apical compartment at t = 0 (μM).
Compound recovery following permeability assessment were calculated according the following Eq. 3:
(3) Recovery (%)=[CR(final)×VR(final))×100/(CD(initial)×VD(initial)]
Where CD and CR are the donor and receiver compartment concentrations, VD and VR are the donor and receiver compartment volumes at t = 0 (initial) or the end of the experiment (final).
Atenolol and propranolol (Sigma Aldrich) were dissolved in a minimal volume of DMSO before dilution into transport buffer. […] All HPLC was performed using a Kinetix XB-C18 5 μm, 100 Å pore size, 150 mm × 4.56 mm column (with a guard column) on an Agilent 1100 HPLC system. […] Samples were analyzed using gradient runs with Milli-Q dH2O, 0.5% TFA (eluent A) and acetonitrile, 0.5% TFA (eluent B).

Papp A→B ([1]; apical to basolateral): 1.48 ×10⁻⁶ cm/s
Papp B→A ([1]; basolateral to apical): 1.44 ×10⁻⁶ cm/s
Papp A→B ([2]; apical to basolateral): 0.48 ×10⁻⁶ cm/s
Papp B→A ([2]; basolateral to apical): 0.67 ×10⁻⁶ cm/s
Papp A→B ([3]; pH 7.4, all porcine segments (duodenum, jejunum, ileum), A to B, read-out: Papp (A to B), range over porcine segments): 3.71 to 5.58 ×10⁻⁶ cm/s
Papp A→B at 1 mM ([3]; pH 7.4, porcine ileal section, A to B): 5.52 ± 2.97 ×10⁻⁶ cm/s
Papp A→B at 1 mM ([3]; pH 7.4, porcine jejunal section, A to B): 5.08 ± 4.12 ×10⁻⁶ cm/s
Papp B→A ([3]; pH 7.4, all porcine segments (duodenum, jejunum, ileum), B to A, read-out: Papp (B to A), range over porcine segments): 3.22 to 9.44 ×10⁻⁶ cm/s
Papp B→A at 1 mM ([3]; pH 7.4, porcine duodenal section, B to A): 9.44 ± 8.56 ×10⁻⁶ cm/s
SMILES: CC(C)NCC(O)COc1ccc(CC(N)=O)cc1 (centres unmarked) [ATN, Atenolol]
human jejunal Papp (human jejunal; first listed value for ATN): 4.11 ± 1.32 × 10^-6
human jejunal Papp (human jejunal; second listed value for ATN): 2.82 ± 0.65 × 10^-6
